Results: WO2014006105A1
No constants are given. Whether binding was seen depends on the method and setting. Some results given as binding are weak or reduced against the parent protein; the word gives no strength.

The chains behind the UniProt entries cited, without tags or fusion partners.
UniProt Q9NQC3: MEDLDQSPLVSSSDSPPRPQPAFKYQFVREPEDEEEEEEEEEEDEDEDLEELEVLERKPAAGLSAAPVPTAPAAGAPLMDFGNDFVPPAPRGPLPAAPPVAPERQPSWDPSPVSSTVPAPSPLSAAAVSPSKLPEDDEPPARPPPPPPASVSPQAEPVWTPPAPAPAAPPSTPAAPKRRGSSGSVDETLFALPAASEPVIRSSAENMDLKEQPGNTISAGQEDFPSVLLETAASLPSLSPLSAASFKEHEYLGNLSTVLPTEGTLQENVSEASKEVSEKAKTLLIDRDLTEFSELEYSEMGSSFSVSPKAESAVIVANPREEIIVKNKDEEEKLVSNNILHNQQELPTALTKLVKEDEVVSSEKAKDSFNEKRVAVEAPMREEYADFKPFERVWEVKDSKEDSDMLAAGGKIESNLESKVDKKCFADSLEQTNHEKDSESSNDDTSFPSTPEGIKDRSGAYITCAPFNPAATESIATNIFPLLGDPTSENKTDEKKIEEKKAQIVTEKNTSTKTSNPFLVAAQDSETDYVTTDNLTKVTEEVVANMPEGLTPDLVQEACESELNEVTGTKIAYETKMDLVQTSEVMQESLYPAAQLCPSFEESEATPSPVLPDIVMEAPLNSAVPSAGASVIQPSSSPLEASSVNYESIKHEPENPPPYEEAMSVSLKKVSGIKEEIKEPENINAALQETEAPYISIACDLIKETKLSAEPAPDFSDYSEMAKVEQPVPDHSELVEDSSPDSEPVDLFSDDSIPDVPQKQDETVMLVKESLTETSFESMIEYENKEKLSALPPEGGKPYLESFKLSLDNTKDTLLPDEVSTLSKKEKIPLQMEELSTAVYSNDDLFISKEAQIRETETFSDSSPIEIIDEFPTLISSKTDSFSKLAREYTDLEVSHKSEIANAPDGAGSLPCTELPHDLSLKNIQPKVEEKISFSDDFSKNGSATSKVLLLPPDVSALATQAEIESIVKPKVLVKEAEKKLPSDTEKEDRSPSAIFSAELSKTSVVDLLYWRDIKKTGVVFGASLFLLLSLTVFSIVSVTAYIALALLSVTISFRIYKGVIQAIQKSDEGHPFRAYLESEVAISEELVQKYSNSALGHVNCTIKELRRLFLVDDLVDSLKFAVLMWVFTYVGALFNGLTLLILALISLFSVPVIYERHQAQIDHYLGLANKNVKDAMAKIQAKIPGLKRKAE

Key:
[1] = target: human Nogo-A (human) (UniProt Q9NQC3); test: immunofluorescence of muscle biopsy sections, individual channels
[2] = target: human Nogo-A (human) (UniProt Q9NQC3); test: laser scanning cytometry of muscle biopsy sections (Figure 7 legend)
[3] = target: human Nogo-A (human) (UniProt Q9NQC3); test: laser scanning cytometry of muscle biopsy sections, pre and post dose
[4] = target: human Nogo-A (human) (UniProt Q9NQC3); test: laser scanning cytometry, gating and back gating, post-dose biopsy 15 mg/kg

- binding [1]: binds
- binding [2]: binds
- binding [3]: binds
- binding [4]: binds
B1: H28L16 (antibody, V domains shown)
VH: QVQLVQSGAEVKKPGASVKVSCKASGYTFTSYWMHWVRQAPGQGLEWIGNINPSNGGTNYNEKFKSKATMTRDTSTSTAYMELSSLRSEDTAVYYCELMQGYWGQGTLVTVSS
VL: DIVMTQSPLSNPVTLGQPVSISCRSSKSLLYKDGKTYLNWFQQRPGQSPQLLIYLMSTRASGVPDRFSGGGSGTDFTLKISRVEAEDVGVYYCQQLVEYPLTFGQGTKLEIK
